# Measured values reported in PubChem BioAssay AID493014 (National Center for Advancing Translational Sciences (NCATS), 2011).
# Some of the results follow. Further columns of the screen follow, without active or inactive calls. Most of these compounds were active or inconclusive in the main read-out, so they are no random draw. The note in brackets gives the kind of curve behind each potency; many fits are weak.
# Experiment: qHTS Assay to Find Inhibitors of Chronic Active B-Cell Receptor Signaling
# Settings: ABC-DLBCL IkBa-CBG/CBR reporter, luminescence ratio (green luciferase fused to IkBa over red control in TMD8 lymphoma cells), 4 h
# In short: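 Doxycycline induced both beetle luciferases in TMD8 lymphoma cells; IKK-driven degradation limits the IkappaBalpha-fused green signal, while red luminescence normalises for cell number and nonspecific effects. Compounds tested up to 46 uM, 4 hrs.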
# [1] = measured here: CBR red luminescence, cell number
# [2] = measured here: IkBa-CBG green luminescence
SMILES,AC50 [1],AC50 [2]
CCOc1ccc2c(c1)-c1c(ssc1=S)C(C)(C)N2C(=O)CSC1=NCCS1,"29.1 µM [falling, single point]",–
CC(C)[C@H](NS(=O)(=O)c1ccccc1)C(=O)OCC(=O)N1N=C(c2ccc(Cl)cc2)CC1c1ccco1 (stereo partly drawn),"23.1 µM [rising, partial curve, poor fit]",–
Nc1ccccc1C(=O)/C=C/c1ccc2c(c1)OCO2,"20.6 µM [falling, single point]",–
O=C(Nc1ccc(F)c(F)c1)c1ccc2c(c1)OCO2,"10 µM [falling, partial curve]",–
Fc1ccc(-n2ncc3c(NCCCN4CCOCC4)ncnc32)cc1,"4.47 µM [falling, partial curve, poor fit]",–
COc1ccc(N2CCN(C(=O)c3cccc(N4C(=O)C5CC=CC(C)C5C4=O)c3)CC2)cc1 (stereo not drawn),"20 µM [falling, partial curve, poor fit]",–
Cc1ccc(C(=O)Nc2ccc(S(=O)(=O)N3CCOCC3)cc2)cc1C,"3.55 µM [rising, single point]",–
Cc1nn2c(c1-c1ccccc1)N=C(c1ccco1)CC2c1ccccc1 (stereo not drawn),"8.2 µM [falling, partial curve]",–
Cc1c(Cl)cccc1NC(=S)NN1CCOCC1,"20.6 µM [falling, single point]",–
C1=C2C[N+]3(CCCC3)CC2Cc2ccc3ccccc3c21 (stereo not drawn),"0.517 µM [falling, partial curve, poor fit]",–
O=C(N/N=C/c1c(Cl)nc2ccccn2c1=O)c1cccnc1,"3.55 µM [falling, partial curve]","12.6 µM [rising, partial curve, poor fit]"
Cc1cc(C(=O)CN2C(=O)c3ccccc3C2=O)c(C)n1Cc1cccs1,"2.91 µM [rising, partial curve]",–
Fc1ccc(NC(=S)Nc2cc(-c3ccccc3)[nH]n2)cc1Cl,"17.8 µM [falling, single point]",–
O=C(CCCOc1ccccc1)NC(=S)Nc1ccccc1,"1 µM [falling, full curve, poor fit]",–
CCOC(=O)c1nc2ccccc2s1,"0.501 µM [rising, full curve, poor fit]",–
O=C(c1ccccc1)n1ccc(-c2cnc(-c3ccccc3)s2)n1,"7.31 µM [falling, partial curve, poor fit]",–
CC(NCc1ccc([N+](=O)[O-])cc1)C1COc2ccccc2O1 (stereo not drawn),"12.6 µM [rising, single point]",–
Cc1cc(C)nc(SCC(=O)N/N=C\C(Br)=C\c2ccccc2)n1,"13 µM [rising, single point]",–
CC(=O)NCCc1nc2ccccc2n1CCOc1cccc(C)c1,"2.82 µM [rising, partial curve]",–
O=C(c1cc(COc2c(F)cccc2F)on1)N1CCSCC1,"1 µM [rising, partial curve]",–
O=c1oc(CCCO)cc2ccc(C#Cc3ccsc3)cc12,"1.84 µM [rising, partial curve]",–
CN1/C(=C\C=N\NC(=O)c2cccnc2)C(C)(C)c2ccccc21,"35.5 µM [falling, single point]",–

# Part of the list above in a different format:
SMILES	AC50 [1]	AC50 [2]
CC(C)[C@H](NS(=O)(=O)c1ccccc1)C(=O)OCC(=O)N1N=C(c2ccc(Cl)cc2)CC1c1ccco1 (stereo partly drawn)	23.1 µM [rising, partial curve, poor fit]	–
Nc1ccccc1C(=O)/C=C/c1ccc2c(c1)OCO2	20.6 µM [falling, single point]	–
O=C(Nc1ccc(F)c(F)c1)c1ccc2c(c1)OCO2	10 µM [falling, partial curve]	–
COc1ccc(N2CCN(C(=O)c3cccc(N4C(=O)C5CC=CC(C)C5C4=O)c3)CC2)cc1 (stereo not drawn)	20 µM [falling, partial curve, poor fit]	–
Cc1ccc(C(=O)Nc2ccc(S(=O)(=O)N3CCOCC3)cc2)cc1C	3.55 µM [rising, single point]	–
O=C(N/N=C/c1c(Cl)nc2ccccn2c1=O)c1cccnc1	3.55 µM [falling, partial curve]	12.6 µM [rising, partial curve, poor fit]
Cc1cc(C(=O)CN2C(=O)c3ccccc3C2=O)c(C)n1Cc1cccs1	2.91 µM [rising, partial curve]	–
O=C(CCCOc1ccccc1)NC(=S)Nc1ccccc1	1 µM [falling, full curve, poor fit]	–
CCOC(=O)c1nc2ccccc2s1	0.501 µM [rising, full curve, poor fit]	–
O=C(c1ccccc1)n1ccc(-c2cnc(-c3ccccc3)s2)n1	7.31 µM [falling, partial curve, poor fit]	–
CC(=O)NCCc1nc2ccccc2n1CCOc1cccc(C)c1	2.82 µM [rising, partial curve]	–
O=C(c1cc(COc2c(F)cccc2F)on1)N1CCSCC1	1 µM [rising, partial curve]	–
CN1/C(=C\C=N\NC(=O)c2cccnc2)C(C)(C)c2ccccc21	35.5 µM [falling, single point]	–

# Later entries.

SMILES,AC50 [1],AC50 [2]
COc1c(Br)cc(Br)cc1C(=O)O,"5.8 µM [falling, partial curve, poor fit]",–
CCc1ccc(OC(C)C(=O)Nc2ccc(S(=O)(=O)Nc3nccs3)cc2)cc1 (stereo not drawn),"3.98 µM [falling, full curve, poor fit]",–
Cc1ccc(S(=O)(=O)c2c(N)n(NC(=O)c3ccccc3C)c3nc4ccccc4nc23)cc1,"20.6 µM [falling, partial curve, poor fit]",–
c1cnc(SCCCOc2ccc3ccccc3c2)nc1,"1.3 µM [rising, full curve]",–
C=CCNCCCCOc1ccccc1-c1ccccc1,"16.4 µM [falling, partial curve]",–
Cn1c(=O)c2c(nc(CN3CCC(C(N)=O)CC3)n2Cc2ccccc2F)n(C)c1=O,"7.08 µM [rising, full curve]",–
O=S(=O)(c1ccccc1C(F)(F)F)N1CCN(CC(O)COc2ccccc2F)CC1 (stereo not drawn),"6.31 µM [rising, single point]",–
CC(=O)N1CCN(C(=O)CCc2nnc(CCCCc3ccccc3)o2)CC1,"7.08 µM [falling, partial curve, poor fit]",–
CN(c1ccccc1)S(=O)(=O)c1cccc(NC(=O)c2ccc(Cl)c([N+](=O)[O-])c2)c1,"32.6 µM [rising, partial curve, poor fit]",–
C/C(Cc1ccccc1)=N\NC(=O)c1ccc(F)cc1,"16.4 µM [falling, partial curve]",–
O=C(N1CCOCC1)N1CCCN(C(=O)N2CCOCC2)CC1,"0.0651 µM [rising, full curve, poor fit]",–
Cc1ccc(CNC(=O)CSCc2cccc(F)c2)cc1,"1 µM [rising, partial curve]",–
CC(C)Cn1cnc2c1c(=O)n(CC(O)c1ccccc1)c(=O)n2CC(C)C (stereo not drawn),–,"0.651 µM [rising, full curve]"
CCC1=Nc2cc(C(=O)NCC3CCCO3)ccc2Sc2ccc(Br)cc21 (stereo not drawn),"35.5 µM [rising, single point]","35.5 µM [falling, single point]"
CC1=CC(C)(C)Nc2ccc(OC(=O)CCN3C(=O)c4ccccc4C3=O)cc21,"10.3 µM [falling, partial curve]",–
CN(C)c1ccc(/C=N/NS(=O)(=O)c2ccc(Br)cc2)cc1,"0.0891 µM [falling, full curve, poor fit]",–
NNC(=O)c1ccc(COc2cccc3ccccc23)o1,"2.82 µM [falling, full curve, poor fit]",–
CN(/N=C/c1c[nH]c2ccccc12)c1cnn(-c2ccc(F)c(Cl)c2)c(=O)c1Cl,"29.1 µM [falling, single point]",–
Cc1sc(NC(=O)CSc2nnc(-c3ccc(F)cc3)o2)c(C#N)c1C,"5.01 µM [rising, partial curve, poor fit]",–
O=C(Nc1ccc(F)cc1)c1sccc1SCc1cccc(C(F)(F)F)c1,"29.1 µM [falling, single point]","25.9 µM [rising, partial curve, poor fit]"
O=C(CCN1C(=O)C2C3C=CC(C3)C2C1=O)NCc1cccnc1 (stereo not drawn),"3.66 µM [falling, partial curve, poor fit]",–
O=C(CN1CCOC1=O)N1CCCC(Nc2ccc(F)c(F)c2)C1 (stereo not drawn),"35.5 µM [rising, single point]",–

SMILES,AC50 [1],AC50 [2]
CSc1ccc(Cl)c(C(=O)Nc2ccc(N3CCOCC3)cc2)c1,"20 µM [falling, partial curve]",–
O=C(NNC(=O)c1ncc(Cl)c(Cl)c1Cl)c1ccc(F)cc1,"11.2 µM [rising, single point]","31.6 µM [falling, partial curve, poor fit]"
C/C(=N/Nc1ccc(C(=O)O)cc1)c1ccc(O)c(O)c1O,"1.84 µM [falling, full curve]",–
Cc1[nH]n(-c2ccc([N+](=O)[O-])cc2)c(=O)c1C=NCCN1CCN(C(=O)C(C)C)CC1,"2.82 µM [falling, full curve]",–
CCCCCOc1ccc(CN2CCOCC2)cc1Cl,"0.461 µM [rising, full curve]",–
COc1ccc(-c2[nH]ncc2CN2CCC(OCc3cccnc3)CC2)c(F)c1,"0.447 µM [falling, partial curve, poor fit]",–
COc1ccc(CNCC(O)(c2ccccc2)c2ccccc2)cc1,"31.6 µM [falling, single point]",–
COC(=O)c1cccc(NC(=O)/C=C/c2ccc3c(c2)OCO3)c1,"4.61 µM [falling, partial curve]",–
COc1ccc(S(=O)(=O)N2CCc3ccccc32)cc1C(=O)NC1(C)CCS(=O)(=O)C1 (stereo not drawn),"6.51 µM [rising, single point]",–
COc1ccccc1CCNC(=O)c1ccc(OC)c(OC2CCN(C(C)C)CC2)c1,"17.8 µM [falling, partial curve, poor fit]",–
CC(=O)c1cc(O)c2ccccc2c1O,"0.631 µM [falling, full curve]",–
O=C(COc1ccc(S(=O)(=O)N2CCCC2)cc1Cl)NC1CCCC1,"14.6 µM [falling, single point]",–
COc1ccc(NC(=O)CCOc2ccccc2)cc1,"8.91 µM [rising, partial curve, poor fit]",–
O=C(O)c1cccc(S(=O)(=O)Nc2ccc(OCc3ccccc3)cc2)c1,"35.5 µM [falling, single point]",–
O=C1CN(C(=O)c2ccccc2)C(c2ccccc2)c2cc(Cl)ccc2N1 (stereo not drawn),"11.2 µM [falling, partial curve, poor fit]",–
C=CCSc1nsc(NC(=O)Nc2cccc(C(C)=O)c2)n1,"35.5 µM [falling, single point]",–
CC1CC(C)CN(C(=O)c2cc3cc(Br)cc(Br)c3o2)C1 (stereo not drawn),"25.1 µM [rising, single point]",–
COc1ccc2c(c1)OC(c1ccccc1)(C(F)(F)F)NC2=O (stereo not drawn),"32.6 µM [falling, partial curve, poor fit]",–
O=C(Nc1nccs1)c1cc2cc(Cl)ccc2oc1=O,"1 µM [rising, full curve]",–
Cc1ccccc1S(=O)(=O)Nc1nc2ccccc2nc1NCCO,"2.59 µM [falling, partial curve, poor fit]",–
